According to PubChem BioAssay AID2685 (National Center for Advancing Translational Sciences (NCATS), 2010):
Some of the results follow. Further columns of the screen follow, without active or inactive calls. Most of these compounds were active or inconclusive in the main read-out, so they are no random draw. Words in brackets tell the shape of the fitted curve; partial curves, single points and poor fits give uncertain potencies.

Assay: qHTS Assay for Lipid Storage Modulators in Drosophila S3 Cells;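 on cell number change: cells counted by Cell Tracker Red CMTPX staining in the red channel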
Settings: BODIPY lipid droplet fluorescence, 18-24 h; for cell number change: measured here: cell count max response, cells fed with added oleic acid
Method in brief: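 Laser-scanning cytometry quantifies lipid droplet accumulation (500–530 nm total intensity; droplet/cell object ratio) in oleic acid-fed (400 uM added) Drosophila S3 cells treated with a concentration series. 20 uM Triacsin C defined 100% inhibition.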

[1] = measured here: lipid fluorescence (Fed channel) AC50, cells fed with added oleic acid
[2] = measured here: cell number channel AC50, cells fed with added oleic acid

Compound | cell number change [%] | AC50 [1] | AC50 [2]
CCOC(=O)C(CC)n1cnc2c(nnn2-c2ccc(C)cc2)c1=O (stereo not drawn) | 0.817 | 6.51 µM [rising, full curve, poor fit] | 
CC(=O)Nc1nc(CCN2C(=O)c3ccccc3C2=O)cs1 | -7.56 | 6.51 µM [rising, single point] | 
CC1CCc2sc(C(=O)NNC(=O)c3ccncc3)cc2C1 (stereo not drawn) |  | 6.51 µM [rising, single point] | 
O=C(Cc1ccccc1)N/N=C/c1cccs1 | -28.5 | 1.3 µM [falling, full curve, poor fit] | 0.461 µM [falling, full curve, poor fit]
Cc1nc2c(sc3nc4c(cc32)COC(C)(C)C4)c(=O)n1Cc1ccccc1 | 79.7 | 0.366 µM [rising, full curve] | 5.8 µM [rising, partial curve, poor fit]
COc1ccc(CCN(C)C2CCCN(C(=O)c3sccc3C)C2)cc1OC (stereo not drawn) | -10.9 |  | 
COc1cc(C(C)=O)ccc1Oc1ncnc2c1cnn2-c1cccc(Cl)c1 | 19.2 | 2.91 µM [rising, full curve] | 0.103 µM [rising, full curve, poor fit]
Cc1ccccc1CC(=O)Nc1ccc(C(=O)N2CCCC2)cc1 | -19.6 | 2.59 µM [falling, full curve, poor fit] | 
CCN(CC(=O)Nc1cccc(OC)c1)CC(=O)Nc1ccc(Br)c(C)c1 | -29.2 |  | 
O=C1CC(=C(c2ccccc2)c2ccccc2)C(=O)N1CCCCN1CCN(c2ccccc2)CC1 | -2.5 |  | 
COC(=O)C1CCN(C(=O)Cc2c(OC)ccc3cc(Br)ccc23)CC1 | -68.1 | 29.1 µM [falling, single point] | 29.1 µM [falling, single point]
O=C(Nc1ccc([N+](=O)[O-])cc1)OCCc1ccccn1 |  | 0.517 µM [rising, full curve] | 0.82 µM [rising, full curve, poor fit]
CC12CCC(C(=O)NCC3CCCO3)(OC1=O)C2(C)C (stereo not drawn) | 5.94 | 0.82 µM [falling, partial curve] | 
COc1ccc(-c2nc3ccc(C(=O)NCC(OC)OC)cc3nc2-c2ccc(OC)c(OC)c2)cc1OC | -14 | 1.84 µM [falling, full curve, poor fit] | 
O=C(NC(Cc1ccccc1)c1nc2ccccc2[nH]1)C1CC(=O)N(c2ccc3c(c2)OCCO3)C1 (stereo not drawn) | -8.19 | 0.116 µM [rising, single point] | 
CCC(c1nnnn1Cc1ccc(F)cc1)N1CCN(C2CCCCC2)CC1 (stereo not drawn) | -31.3 | 29.1 µM [falling, partial curve] | 4.11 µM [falling, full curve]
CCN1C(=O)[C@H]2[C@@H](c3ccc(-c4ccc(Cl)c(Cl)c4)cc3)N3CCCC[C@@]3(C(=O)OC)[C@H]2C1=O | -25.1 | 0.411 µM [rising, single point] | 0.461 µM [falling, full curve, poor fit]
CCOC(=O)C1CCN(C(=O)c2cccc(NS(=O)(=O)c3ccc(F)c(F)c3)c2)CC1 | 28.8 | 20.6 µM [rising, single point] | 
O=C(NC1CCCCC1)c1cc(C2CC2)nn1-c1ccccc1 | 6.58 | 3.26 µM [falling, single point] | 3.26 µM [falling, single point]

Compound | cell number change [%] | AC50 [1] | AC50 [2]
CCC1(c2ccc(C)cc2)NC(=O)N(CC(=O)Nc2cccc(S(=O)(=O)N3CCCC3)c2)C1=O (stereo not drawn) | -47.4 | 5.17 µM [falling, single point] | 16.4 µM [falling, single point]
CC(=O)Nc1ccc(NC(=O)Nc2ccc(C)cc2C)cc1 | -39.1 | 0.461 µM [falling, full curve] | 0.731 µM [falling, full curve]
Cc1occc1-c1nnc(SCC(=O)Nc2ccccc2-c2ccccc2)n1C | -10.9 |  | 
Cc1cc(C)cc(OCC(=O)Nc2cccc(-c3nc4ncccc4o3)c2)c1 |  | 0.0517 µM [rising, full curve, poor fit] | 
C=CCNc1nc(-c2ccccn2)nnc1-c1ccccc1 |  | 1.84 µM [rising, partial curve] | 1.64 µM [rising, partial curve]
CCOC(=O)C1CCN(C(=O)c2ccccc2NC(=O)C2=C(C)OCCS2)CC1 | 2.12 |  | 
Cc1ccc(S(=O)(=O)NCCC(=O)NC2CCCCC2C)cc1 (stereo not drawn) | 10 | 0.731 µM [falling, full curve, poor fit] | 6.51 µM [falling, single point]
O=C(c1ccco1)N1CCN(c2ncnc3sc4c(c23)CCC4)CC1 | -6.05 | 2.06 µM [rising, partial curve] | 
CCOC(=O)Nc1ccc2c(c1)N(C(=O)CN(CC)CC)c1ccccc1C=C2 | -11.4 | 20.6 µM [falling, partial curve] | 
Cn1c(=O)[nH]c(=O)c2c1nc(N1CCOCC1)n2CCN1CCOCC1 | -17.3 | 0.164 µM [falling, full curve] | 
CC(SC(=S)N(C)Cc1cccs1)C(=O)O (stereo not drawn) | 82.3 | 0.651 µM [falling, full curve] | 13 µM [rising, partial curve]
CCn1cc(CN2CCC(C(=O)Nc3cccc(-c4cccc(Cl)c4)c3)CC2)c(C)n1 | -50.6 |  | 35.5 µM [falling, single point]
O=C(Cc1nnc(NC(=O)c2ccccc2)s1)N/N=C/c1ccco1 | 4.03 | 6.51 µM [rising, partial curve, poor fit] | 6.51 µM [rising, partial curve, poor fit]
CCn1c(SCc2nc3ccccc3[nH]2)nnc1-c1cccnc1 |  |  | 0.0731 µM [rising, full curve, poor fit]
O=C(NCCN1CCOCC1)c1ccc(=O)oc1 | 8.24 | 16.4 µM [falling, single point] | 
O=C(COc1ccccc1)OCC(=O)c1ccc(S(=O)(=O)N2CCCCC2)cc1 | -31.5 | 29.1 µM [rising, single point] | 11.6 µM [falling, partial curve, poor fit]
O=C(Nc1cccc(C(F)(F)F)c1)c1csc(-c2ccncc2)n1 | -30.4 |  | 
CCOC(=O)Cn1c(=O)cnc2ccccc21 | -48.5 | 0.259 µM [falling, partial curve, poor fit] | 0.146 µM [falling, full curve]
CCCN(CC(=O)Nc1cc(Cl)ccc1Cl)C(=O)c1ccc2n[nH]nc2c1 | 6.46 |  | 

Compound | cell number change [%] | AC50 [1] | AC50 [2]
CC(=O)N1CCN(c2ccc(NS(=O)(=O)c3ccc(C)cc3)cc2)CC1 | 19.7 |  | 
N#Cc1c(NC(=O)/C=C/c2ccco2)sc2c1CCCC2 | -48 | 16.4 µM [falling, single point] | 13 µM [falling, partial curve]
Cc1ccc2c(C)nc(N/C(N)=N/S(=O)(=O)c3ccccc3)nc2c1 | 57.8 | 0.00461 µM [falling, full curve, poor fit] | 
COc1ccc(-c2nc3ccc(C(=O)NCC(OC)OC)cc3nc2-c2ccc(OC)cc2)cc1 | -39.6 | 29.1 µM [falling, partial curve] | 25.9 µM [falling, single point]
Cc1ccc(N(C)S(=O)(=O)c2cccc(C(=O)NC3=NCCS3)c2)cc1 | 31.9 | 10.3 µM [rising, partial curve] | 1.64 µM [rising, full curve]
Cc1ccccc1C(=O)Oc1ccc(Sc2ccc(O)cc2)cc1 | -62.5 | 3.26 µM [rising, full curve] | 16.4 µM [falling, single point]
C/C=C/C=C(/NC(=O)c1ccccc1)C(=O)Nc1ccccc1 | 6.94 | 0.116 µM [rising, full curve] | 
COc1ccc(C(=O)NNC(=O)c2ccc(S(=O)(=O)N3CCOCC3)cc2)cc1 |  | 2.91 µM [rising, partial curve] | 
COc1ccc(C(C(=O)NC2CCCCC2)N(C(=O)c2snc(C(N)=O)c2N)c2ccc(OC)cc2OC)cc1 (stereo not drawn) | -2.61 |  | 
Cc1noc(C)c1C(c1ccccc1)c1ccccc1 | 12.2 | 18.4 µM [rising, single point] | 
COc1ccc(NC(=S)NN2CCOCC2)cc1OC | 2.08 |  | 
Cc1cc(=O)[nH]c(N/N=C/c2cccc(Br)c2)n1 | 5.47 | 29.1 µM [falling, single point] | 
c1ccc(CNn2nnnc2-c2ccccc2)cc1 | -13.4 |  | 
CCOc1cc(NS(=O)(=O)c2ccc(NC(C)=O)cc2)c(OCC)cc1NC(=O)c1cccs1 | 9.5 | 9.2 µM [rising, partial curve] | 
CCOC(=O)C1=C(COC(=O)c2ccc([N+](=O)[O-])o2)NC(=O)NC1C (stereo not drawn) | -30.7 | 29.1 µM [falling, single point] | 6.51 µM [falling, full curve, poor fit]
O=C(CSCCO)Nc1cccc([N+](=O)[O-])c1 | 37 |  | 7.31 µM [rising, partial curve]
Cc1cc(C(=O)O)c(C)n1-c1ccccc1 | 5.72 | 0.82 µM [falling, full curve] | 
Cc1nnc(NC(=O)C2CCN(C(=O)c3ccco3)CC2)s1 | 26.6 |  | 
CN1/C(=C\C(=O)c2ccco2)C(C)(C)c2ccccc21 | -39.7 | 29.1 µM [falling, single point] | 25.9 µM [falling, single point]

An excerpt from above in order of heavy-atom count, rising.
Compound | cell number change [%] | AC50 [1] | AC50 [2]
CN1/C(=C\C(=O)c2ccco2)C(C)(C)c2ccccc21 | -39.7 | 29.1 µM [falling, single point] | 25.9 µM [falling, single point]
Cc1ccc2c(C)nc(N/C(N)=N/S(=O)(=O)c3ccccc3)nc2c1 | 57.8 | 0.00461 µM [falling, full curve, poor fit] | 
COc1ccc(C(=O)NNC(=O)c2ccc(S(=O)(=O)N3CCOCC3)cc2)cc1 |  | 2.91 µM [rising, partial curve] | 
CCOc1cc(NS(=O)(=O)c2ccc(NC(C)=O)cc2)c(OCC)cc1NC(=O)c1cccs1 | 9.5 | 9.2 µM [rising, partial curve] | 
COc1ccc(C(C(=O)NC2CCCCC2)N(C(=O)c2snc(C(N)=O)c2N)c2ccc(OC)cc2OC)cc1 (stereo not drawn) | -2.61 |  | 
